PMC3634074
No constants are given. Whether binding was seen depends on the method and setting. A result given as binding can be weak or reduced; the word gives no strength.

Chains of the proteins cited; added tags and fusions are not shown. Lines headed by an entry give the natural chain unless they say otherwise; changes in a name come on top.
UniProt G4RK45: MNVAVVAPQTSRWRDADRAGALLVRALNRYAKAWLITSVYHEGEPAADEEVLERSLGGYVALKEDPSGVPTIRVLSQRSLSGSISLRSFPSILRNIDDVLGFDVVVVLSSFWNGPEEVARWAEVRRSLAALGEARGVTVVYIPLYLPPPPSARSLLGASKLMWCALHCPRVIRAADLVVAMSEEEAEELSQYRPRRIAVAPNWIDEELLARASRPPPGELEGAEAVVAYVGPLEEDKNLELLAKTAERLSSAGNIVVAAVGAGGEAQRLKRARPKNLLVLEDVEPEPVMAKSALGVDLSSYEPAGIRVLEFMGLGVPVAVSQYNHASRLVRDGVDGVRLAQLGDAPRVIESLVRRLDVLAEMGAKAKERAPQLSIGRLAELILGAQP

Target: Thermoproteus tenax putative glycosyltransferase (GT) (Thermoproteus tenax) (UniProt G4RK45)
Assay: two-hybrid; Matchmaker system 3 (Clontech), yeast AH109 co-transformed with pGADT7::TTX_1305 and pGBKT7::TTX_1304; drops on SD plates with X-alpha-gal lacking leucine, tryptophan, histidine and adenine; three days at 30°C

B1: Thermoproteus tenax trehalose-6-phosphate synthase/phosphatase (TPSP) (enzyme, UniProt G4RK44 1-731)
chain: MRLIVVSNRLPVTISPSGEIRESVGGLATAMKSFLGAVNGGRELGLEEVVWVGWSGVPSERESNDLRERLRGMGLEPVPLSSEEVEGFYEGFSNSTLWPLFHGFSEYATYEEKHWRAYRGVNEKYAKAVVALARPGDLVWIHDYHLMLAPAIVREAAEVGVGFFLHIPFPPAELLQLLPSEWRREILEGLLGSDLVGFHTYEYSANFSRSVVRFLGYKVEMGAIAVGHRRVRVGVFPIGIDFDRFYNSSQDPSVVEEMAKLREMLGRAKVVFSIDRLDYTKGVLRRVAAWERFLREHPEWRGRAVFVLVVVPSRTGVPMYEEMKRQIDREVGRINGELGELNWVPIVYLYRFIPSPTLMALYNIADVALITPLRDGMNLVAKEFVASKRDCRGVLILSELAGASKELAEALVINPNDVGGTAEAIAEALSMSEDEQCRRIRAMQERLRMRDVVRWGTDFIYSLISAKSAREEVEKALRYMEELSVDKLKSDFAKAKRRLLLLDYDGTLVPHYPYPHMAVPDGDLLELLSRLAALPETAVYVVSGRGRDFLDGWLGRLPVGLVAEHGFFLKHPGGEWKSLGKVDPSWRQYAKGIMEDFASNVPGSFVEVKEAGIAWHYRNADETIAEKAVVELIDALSNALAGSGLSILRGKKVVEVRPAGYTKGTAAKMLLDELSPDFVFVAGDDETDEGMFEVAPQSAYTVKVGPGPTLAKFRVGDYRGLRSLLEQLRPP
binding: binds
